Here are results for 42 sequences from article PMC7819943, “Rice protein-binding microarrays: a tool to detect cis-acting elements near promoter regions in rice”.

Amino acid sequences for entries named in this document (tags omitted).
UniProt Q0JBA9, entry or part of it: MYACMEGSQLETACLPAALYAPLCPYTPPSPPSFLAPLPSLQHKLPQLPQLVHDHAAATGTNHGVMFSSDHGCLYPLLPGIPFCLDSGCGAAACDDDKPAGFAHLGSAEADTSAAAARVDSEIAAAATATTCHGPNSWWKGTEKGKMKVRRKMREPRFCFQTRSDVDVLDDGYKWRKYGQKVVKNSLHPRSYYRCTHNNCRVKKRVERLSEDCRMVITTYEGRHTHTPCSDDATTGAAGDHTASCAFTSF

This is one part of the list.

For the assay, the target named is OsWRKY34 (Oryza sativa, UniProt Q0JBA9 1-250). Put plainly: protein-binding microarray (RPBM); PBS, 2% BSA, 51.3 ng/ul salmon testes DNA, 50 uM zinc acetate, 200 nM TF, 25 C, 1 h; high values mean tight binding. The settings on record: protein: recombinant; tags: N-terminal polyhistidine and DsRed monomer fusion (pET32a); label: CyDye5-dUTP incorporated in the synthesized complementary strand; 3' TTTTT single-stranded linker to array surface; dsDNA, one strand shown. The gist of the method: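 Polyhistidine-tagged DsRed fusions of transcription factors, joined at the N-terminus, were expressed in E. coli BL21-CodonPlus and isolated on Ni–NTA. They were incubated at 200 nM for 1 h at 25 °C on a custom Agilent array, double-stranded and BSA-blocked, in PBS with 2% BSA, salmon testes DNA and 50 µM zinc acetate. The binding signal is per-feature fluorescence intensity (arbitrary units) read on an Axon 4000B scanner after washing.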
With “TCTCATTTACGCTTCATTCACTTTGCCTGCAACCAATCGCCGGAGTCACCTAGTGCAG”, the binding signal was 8690 fluorescence intensity (a.u.).

“TCTCGTGTTTTATGCTTAACAGAGCTCTTGTTTCTGGCATCGGAGTCACCTAGTGCAG”: the binding signal is 8900 fluorescence intensity (a.u.).

Consider “ACCATCCTACATCAAGGAAACGTCTCGAGCCACCTCGCCGCGGAGTCACCTAGTGCAG”, for which the binding signal was 9050 fluorescence intensity (a.u.).

Regarding “TGTAGTATAGTGTGTGTGTGTGTGTATATATATATATATACGGAGTCACCTAGTGCAG”, the binding signal was 8170 fluorescence intensity (a.u.).

As for “GAGCTTCGACGACGCCGGCTTTGGCCCTGTCCCCGCCAGGCGGAGTCACCTAGTGCAG”, the binding signal is 9230 fluorescence intensity (a.u.).

For the sequence “GGAAAAGAACACCGGTCCATTTTGCAACTATTGTGAAGTTCGGAGTCACCTAGTGCAG”, the binding signal is 8220 fluorescence intensity (a.u.).

For the sequence “CTCAGCTTCCGTTATTACCTCTGCGCACAAGTTACCGGGCCGGAGTCACCTAGTGCAG”, the binding signal is 8720 fluorescence intensity (a.u.).

Consider “AATCTATTGTTGCCACTTTTTTGTGCTTTTAAATTAGTCACGGAGTCACCTAGTGCAG”, for which the binding signal was 10800 fluorescence intensity (a.u.).

On to “CTGCTGTATTCACATATCAGATCTGGTTCAAACGAACTTCCGGAGTCACCTAGTGCAG”, for which the binding signal was 9100 fluorescence intensity (a.u.).

As to “TTTGTTCGGTTGTGGGTTTTGAGATAAGAAATTATTATCACGGAGTCACCTAGTGCAG”, the binding signal is 8080 fluorescence intensity (a.u.).

For “CTTTTTGCTTCACTCTGTGTCCATCTTGACCTGCATGGCTCGGAGTCACCTAGTGCAG”, the binding signal was 9900 fluorescence intensity (a.u.).

As for “GCGCGGCGTTGTTGGGTGTGTTCGTGAATCGGGCGGGATGCGGAGTCACCTAGTGCAG”, the binding signal was 10500 fluorescence intensity (a.u.).

As for “AGAATGTCTTGCGCGCTAACCACACTTATCGCGTGATTTTCGGAGTCACCTAGTGCAG”, the binding signal was 8120 fluorescence intensity (a.u.).

Regarding “GTTTTATTTTTTCAAGCAGACAAAATATTTTCACTTTTACCGGAGTCACCTAGTGCAG”, the binding signal is 9870 fluorescence intensity (a.u.).

As to “CCTTAGCCGCGCTCGCCACCACCTCCTCACTCCTCTCACTCGGAGTCACCTAGTGCAG”, the binding signal was 8770 fluorescence intensity (a.u.).

Regarding “TCGCCTACCCGCTGCAACCATACCCCACCCGACATGGACCCGGAGTCACCTAGTGCAG”, the binding signal is 9190 fluorescence intensity (a.u.).

For “TTTGTTGTGTGTTCTCCTCTTTGTTGAGGTGTAAATCTAACGGAGTCACCTAGTGCAG”, the binding signal was 8060 fluorescence intensity (a.u.).

With “CCAACGGCCCACCCTATAGCTAGCGCCACCACCGACACCACGGAGTCACCTAGTGCAG”, the binding signal is 9090 fluorescence intensity (a.u.).

Take “TGATTAATTTGGTCAAATCTTTGTGATGATTTTTGCTCCTCGGAGTCACCTAGTGCAG”: the binding signal is 8590 fluorescence intensity (a.u.).

Consider “TGTGTACATCTACACCACAATACCGTACCCTACATCTCTCCGGAGTCACCTAGTGCAG”, for which the binding signal was 11900 fluorescence intensity (a.u.).

Turning to “GGTACCCATAATCTCCACGTGATCTTTTTTATTTTTGTTCCGGAGTCACCTAGTGCAG”, the binding signal is 11300 fluorescence intensity (a.u.).

On to “GCACTTTATCTTAACTATCTTAGTCTGTATGGTTTTTCTGCGGAGTCACCTAGTGCAG”, for which the binding signal is 8280 fluorescence intensity (a.u.).

In the case of “ATATAACGTTTGACTCCTCGTCTTATTTAAAAATTTTCTACGGAGTCACCTAGTGCAG”, the binding signal was 10700 fluorescence intensity (a.u.).

In the case of “TGACTTTTTAGCATATGTTTGACCGTTCGTCTTATTCAAACGGAGTCACCTAGTGCAG”, the binding signal is 13600 fluorescence intensity (a.u.).

“ATGTTAAGTTTCAGCATATAAACTTCTGCTGTCTCTGTTACGGAGTCACCTAGTGCAG”: the binding signal was 8380 fluorescence intensity (a.u.).

Regarding “GTTTGTTACTTGTATTTCATTACGATTTATCTGTCGTACCCGGAGTCACCTAGTGCAG”, the binding signal was 9640 fluorescence intensity (a.u.).

With “GGCTGGTTTGGTTGGTTGAGAATACCTTTTCTTTTTCCTTCGGAGTCACCTAGTGCAG”, the binding signal was 29100 fluorescence intensity (a.u.).

On to “ACGTACGATCACCACATGTAAATCGGTCAAGTCCAACACTCGGAGTCACCTAGTGCAG”, for which the binding signal was 8030 fluorescence intensity (a.u.).

For “GGCGGGGCGGTGGCGTTGGTCCCGCCGCGGCGGGGCTTGCCGGAGTCACCTAGTGCAG”, the binding signal is 8030 fluorescence intensity (a.u.).

“CATAATTTGTGCTAAGTGCTAACAGTCTTCATTTGTTTTCCGGAGTCACCTAGTGCAG”: the binding signal was 10400 fluorescence intensity (a.u.).

Regarding “ATTACACTTTTCTCATGTAACATCTCCGGTGGTTTGAGCACGGAGTCACCTAGTGCAG”, the binding signal was 10400 fluorescence intensity (a.u.).

As for “TAGAACTTAGAAGGCTATGTTTGGTACTTCCTCGTTTCACCGGAGTCACCTAGTGCAG”, the binding signal is 9000 fluorescence intensity (a.u.).

Regarding “GGTGGTCTTCTTTCCCGCATCCTCTTCGCCACTTATATTGCGGAGTCACCTAGTGCAG”, the binding signal was 8180 fluorescence intensity (a.u.).

As to “GCCTCCTCCTCGCGCGCACCCGCCGGAGCCGCCTCACCCTCGGAGTCACCTAGTGCAG”, the binding signal was 11200 fluorescence intensity (a.u.).

In the case of “TTTATTTTCTCGATATGTGTTTATAGCTAGCTCTTACTTTCGGAGTCACCTAGTGCAG”, the binding signal was 12300 fluorescence intensity (a.u.).

For the sequence “ACGCCGTTGACTTTTTTAAACATGTTTAACCGTTCATCTTCGGAGTCACCTAGTGCAG”, the binding signal is 47400 fluorescence intensity (a.u.).

Consider “GCACACCACCAACCTGACCAGCTGCCAGCTCTCACTTTCTCGGAGTCACCTAGTGCAG”, for which the binding signal was 9160 fluorescence intensity (a.u.).

As to “ACTTTCCACATCAAGCATGCGCACATCTTCCTTGATCATCCGGAGTCACCTAGTGCAG”, the binding signal was 8590 fluorescence intensity (a.u.).

For “GTTTGCCGATCATATGCTCTCTTTCTCTCTTCATACTCAACGGAGTCACCTAGTGCAG”, the binding signal was 8990 fluorescence intensity (a.u.).

In the case of “TCTTCAAGCAACCACCAGCCATCGTTGTCAACAACATTGACGGAGTCACCTAGTGCAG”, the binding signal was 8600 fluorescence intensity (a.u.).

Turning to “TTGTGTTCTTGTTCCTACTTTGAAATGTAATTGTGATTTTCGGAGTCACCTAGTGCAG”, the binding signal was 8550 fluorescence intensity (a.u.).

For “CGTCACCACGCCACACCCCATTCGCTCGTTAACGGGTCCGCGGAGTCACCTAGTGCAG”, the binding signal is 10200 fluorescence intensity (a.u.).
